Results deposited as PubChem BioAssay AID1053208 (Peter MacCallum Cancer Centre, 2014).
Screen: 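Find knock-downs that sensitise mouse osteosarcoma cells to doxorubicin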 (primary screen). System: mouse osteosarcoma cells, early-passage culture from an engineered mouse model of fibroblastic bone tumour. Knock-down reagent: siRNA pool against mouse genes, 40 nM. Time to read-out: about 120 h (48 h before drug, then 72 h with drug). Treatment: doxorubicin 100 nM for 72 h, roughly 30-40% inhibitory dose. Measurement: 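Viability read as ATP luminescence after 72 h of 100 nM doxorubicin or none, duplicate wells averaged, scaled to non-targeting siRNA, then expressed as robust z-scores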. Reading the numbers: viability z-score with doxorubicin and doxorubicin viability vs non-targeting: higher = more viable cells under doxorubicin; viability z-score without drug: higher = more viable cells with knock-down alone; z-score of drug to no-drug ratio: higher = less drug sensitisation by knock-down. Active means: 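a pool counts as active when its viability z-score with doxorubicin is -2 or below and its z-score without drug lies between -2 and 2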.
This is a random part of about 17,000 deposited reagents. In the full data, 788 (4.7%) were called active. 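Calls rest on z-score classes alone; an extra cut-off of viability at most 70% of control was not applied to them.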 Reagent sequences are not shown.

| gene | combined z-score class | viability z-score with doxorubicin | viability z-score without drug | z-score of drug to no-drug ratio | doxorubicin viability vs non-targeting | outcome |
| --- | --- | --- | --- | --- | --- | --- |
| Sra1 | no change with or without drug | 1.35 | 0.34 | 1.24 | 1.06 | inactive |
| Dpp4 | no change with or without drug | -0.67 | -1.85 | 0.79 | 0.88 | inactive |
| Or1o4 | no change with or without drug | -1.69 | -1.85 | -0.45 | 0.79 | inactive |
| Gabrb3 | no change with or without drug | -0.79 | -0.17 | -0.56 | 0.87 | inactive |
| Fpr1 | no change with or without drug | -0.9 | -1.01 | -0.11 | 0.86 | inactive |
| Dse | no change with or without drug | -0.67 | -1.18 | 0.22 | 0.88 | inactive |
| Actn4 | no change with or without drug | -0.45 | -0.17 | -0.22 | 0.9 | inactive |
| Klhl8 | no change with or without drug | 0.56 | 1.35 | -0.22 | 0.99 | inactive |
| Erg28 | high cell count with and without drug | 2.81 | 2.19 | 1.35 | 1.19 | inactive |
| Hmbs | no change with or without drug | 0.79 | -0.84 | 1.57 | 1.01 | inactive |
| Myl10 | no change with or without drug | 0.22 | 0.17 | 0.22 | 0.96 | inactive |
| Prl2c2 | no change with or without drug | 0.45 | -1.52 | 1.8 | 0.98 | inactive |
| Naa15 | no change with or without drug | 1.24 | -0.84 | 2.14 | 1.05 | inactive |
| Casp14 | no change with or without drug | 0.9 | 1.35 | 0.11 | 1.02 | inactive |
| Cst3 | high cell count with doxorubicin only | 2.25 | -0.51 | 2.92 | 1.14 | inactive |
| Abhd11 | no change with or without drug | -0.67 | 1.01 | -1.24 | 0.88 | inactive |
| Tacr3 | no change with or without drug | -0.34 | 0.84 | -0.79 | 0.91 | inactive |
| Rrs1 | no change with or without drug | 0.9 | 0.67 | 0.56 | 1.02 | inactive |
| Nsun6 | high cell count with and without drug | 2.7 | 2.87 | 0.79 | 1.18 | inactive |
| Pdcd6 | no change with or without drug | -0.56 | 0.84 | -1.01 | 0.89 | inactive |

Part of the list above, limited to “z-score of drug to no-drug ratio”.
Dse	0.22
Actn4	-0.22
